The source of these data is doi:10.1101/2020.10.20.346569.

Sequences of proteins named here, by UniProt entry; tags and fusion partners are left off. A change or cut given only in a name is not applied to a line headed by its entry. A line that says so, or that is headed by a name, gives the form on record, which may keep a tag or linker.
UniProt P49841: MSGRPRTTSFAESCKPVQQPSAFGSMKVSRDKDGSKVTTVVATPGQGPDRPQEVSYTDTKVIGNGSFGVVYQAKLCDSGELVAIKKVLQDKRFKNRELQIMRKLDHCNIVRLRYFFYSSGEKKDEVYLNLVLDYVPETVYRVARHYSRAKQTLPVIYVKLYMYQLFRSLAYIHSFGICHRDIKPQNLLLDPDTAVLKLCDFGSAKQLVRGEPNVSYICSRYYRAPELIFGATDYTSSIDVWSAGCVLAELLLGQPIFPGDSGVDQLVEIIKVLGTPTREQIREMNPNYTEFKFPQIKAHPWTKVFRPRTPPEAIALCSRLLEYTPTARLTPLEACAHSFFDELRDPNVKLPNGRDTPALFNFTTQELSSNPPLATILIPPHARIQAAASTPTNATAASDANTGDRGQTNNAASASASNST
GST-GSK3β(Δ314-329) (P49841, form named): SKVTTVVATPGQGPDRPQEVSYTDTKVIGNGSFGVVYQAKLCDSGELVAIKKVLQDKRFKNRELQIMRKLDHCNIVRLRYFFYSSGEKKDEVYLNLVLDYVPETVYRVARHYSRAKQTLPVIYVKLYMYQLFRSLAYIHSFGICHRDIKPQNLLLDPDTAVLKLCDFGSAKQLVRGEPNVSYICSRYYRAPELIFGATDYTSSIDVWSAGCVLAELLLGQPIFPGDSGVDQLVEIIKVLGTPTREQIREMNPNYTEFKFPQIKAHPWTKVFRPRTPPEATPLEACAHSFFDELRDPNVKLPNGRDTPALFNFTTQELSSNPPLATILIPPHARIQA
UniProt O60573: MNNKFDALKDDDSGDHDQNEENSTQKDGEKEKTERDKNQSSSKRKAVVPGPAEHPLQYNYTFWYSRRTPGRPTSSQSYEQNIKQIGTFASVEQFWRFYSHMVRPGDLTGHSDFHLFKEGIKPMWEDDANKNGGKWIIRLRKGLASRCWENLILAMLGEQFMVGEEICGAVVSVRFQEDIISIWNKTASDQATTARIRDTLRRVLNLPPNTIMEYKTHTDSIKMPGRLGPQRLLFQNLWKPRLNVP
GST-eIF4E2(Δ231-242) (O60573, form named): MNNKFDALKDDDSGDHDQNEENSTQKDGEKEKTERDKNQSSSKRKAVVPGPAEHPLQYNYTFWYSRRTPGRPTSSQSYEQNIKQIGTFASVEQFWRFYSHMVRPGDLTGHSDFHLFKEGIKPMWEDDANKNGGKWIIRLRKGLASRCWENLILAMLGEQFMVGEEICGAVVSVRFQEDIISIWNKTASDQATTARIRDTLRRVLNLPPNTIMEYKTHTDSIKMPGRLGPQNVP

These are yes or no findings as the source states them, for the method shown. For some of these results: Binding seen in cells or lysates may run through a third protein. Some results given as binding are weak or reduced against the parent protein; the word gives no strength. For some of these results: Where a sequence is shown, tags or fusion partners need not be part of it.

One test concerns the target T1, GST-RBM38 (UniProt Q9H0Z9).
T1 sequence: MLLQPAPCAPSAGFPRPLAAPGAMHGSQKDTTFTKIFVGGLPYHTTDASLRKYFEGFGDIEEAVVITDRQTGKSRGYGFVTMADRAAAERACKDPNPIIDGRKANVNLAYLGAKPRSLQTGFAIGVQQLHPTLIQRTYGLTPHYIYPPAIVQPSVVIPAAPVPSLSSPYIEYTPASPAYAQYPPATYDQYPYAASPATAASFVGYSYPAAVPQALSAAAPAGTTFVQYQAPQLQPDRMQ
Briefly: pull-down.

The target of a further test is GST-GSK3β(Δ314-329) (UniProt P49841). Briefly: pull-down.
In the next test the target is GSK3β-HOTag6 (UniProt P49841). As to the kind of experiment: SPPIER.
Test [1] addresses T2, endogenous RBM38 (not stated (endogenous, cell line not named)) (UniProt Q9H0Z9).
T2 sequence: T1 sequence
As to the kind of experiment: co-IP.

Test [2] concerns the target endogenous GSK3β (not stated (endogenous, cell line not named)) (UniProt P49841). Briefly: co-IP.
Another test concerns the target GST-eIF4E2 (UniProt O60573). Briefly: pull-down.
The next test concerns the target GST-eIF4E2(Δ231-242) (UniProt O60573). Briefly: pull-down.

As for His-eIF4E2 (from UniProt O60573 1-245), the binding result with GST-RBM38 was “binds”; with GST-GSK3β(Δ314-329) it was “no binding”.

With “EGFP-eIF4E2-HOTag3 (from UniProt O60573 1-245)”, the binding result with GSK3β-HOTag6 was “binds”.

As to “endogenous eIF4E2 (from UniProt O60573 1-245)”, the binding result in test [1] and in test [2] was “binds” in each case.

Consider “His-GSK3β (from UniProt P49841 35-386) (enzyme)”, for which the binding result is on record as “binds” with GST-eIF4E2 and “no binding” in the test with GST-eIF4E2(Δ231-242).
